{"source": "patent US10072011B2", "about": "“Substituted bridged urea analogs as sirtuin modulators” (GlaxoSmithKline Intellectual Property (No.2) Limited, priority 2014, dated 2018)", "note": "For at least one compound, name, drawing or mass did not settle the structure.", "data": [{"target": "T1, SIRT1 (Homo sapiens, UniProt Q96EB6)", "T1 sequence (Q96EB6 1-747)": "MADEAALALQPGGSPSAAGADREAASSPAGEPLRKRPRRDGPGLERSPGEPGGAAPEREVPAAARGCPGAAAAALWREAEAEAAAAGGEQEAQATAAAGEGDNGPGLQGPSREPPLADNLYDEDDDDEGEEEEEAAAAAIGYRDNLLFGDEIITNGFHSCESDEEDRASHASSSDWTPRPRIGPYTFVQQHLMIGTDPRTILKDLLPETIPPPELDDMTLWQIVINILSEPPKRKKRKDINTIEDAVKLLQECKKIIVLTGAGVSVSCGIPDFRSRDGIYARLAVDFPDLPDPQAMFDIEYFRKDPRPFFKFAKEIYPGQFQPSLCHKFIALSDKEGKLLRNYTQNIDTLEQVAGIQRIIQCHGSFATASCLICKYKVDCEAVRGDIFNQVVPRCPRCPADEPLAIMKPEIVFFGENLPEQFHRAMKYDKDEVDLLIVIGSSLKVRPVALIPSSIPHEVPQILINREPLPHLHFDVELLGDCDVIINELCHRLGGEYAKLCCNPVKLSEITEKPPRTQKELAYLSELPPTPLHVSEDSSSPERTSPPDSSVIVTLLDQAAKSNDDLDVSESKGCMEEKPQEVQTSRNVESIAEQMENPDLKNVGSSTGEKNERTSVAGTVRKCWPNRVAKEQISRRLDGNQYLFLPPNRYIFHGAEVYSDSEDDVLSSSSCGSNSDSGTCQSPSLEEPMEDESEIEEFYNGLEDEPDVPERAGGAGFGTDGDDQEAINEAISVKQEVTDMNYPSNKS", "assay": "Trp mass spectrometry assay of SIRT1 activation (Ac-R-H-K-K(Ac)-W-NH2 peptide)", "format": "biochemical", "conditions": "Trp peptide 0.5 μM, 120 μM βNAD+, 10 nM SIRT1, 25 min at 25° C.", "experimental": "The Trp mass spectrometry assay was conducted as follows. […] The SIRT1 protein was obtained by cloning the SirT1 gene into a T7-promoter containing vector, which was then expressed in BL21(DE3) bacterial cells and purified as described in further detail below. Test compound was added at varying concentrations to this reaction mixture and the resulting reactions were monitored. After the 25 minute incubation with SIRT1, 10 μL of 10% formic acid was added to stop the reaction. The resulting reactions were sealed and frozen for later mass spec analysis. The relative SIRT1 activity was then determined by measuring the amount of O-acetyl-ADP-ribose (OAADPR) formed (or, alternatively, the amount of deacetylated Trp peptide generated) by the NAD-dependent sirtuin deacetylation reaction in the presence of varying concentrations of the test compound versus control reactions lacking the test compound. The degree to which the test agent activated deacetylation by SIRT1 was expressed as EC1.5 (i.e., the concentration of compound required to increase SIRT1 activity by 50% over the control lacking test compound), and Percent Maximum Activation (i.e., the maximum activity relative to control (100%) obtained for the test compound).\nThis time point was the same as that used for test compounds and, within the linear range, the endpoint represents a change in velocity.\nFor the above assay, SIRT1 protein was expressed and purified as follows. The SirT1 gene was cloned into a T7-promoter containing vector and transformed into BL21(DE3). The protein was expressed by induction with 1 mM IPTG as an N-terminal His-tag fusion protein at 18° C. overnight and harvested at 30,000×g. Cells were lysed with lysozyme in lysis buffer (50 mM Tris-HCl, 2 mM Tris[2-carboxyethyl]phosphine (TCEP), 10 μM ZnCl2, 200 mM NaCl) and further treated with sonication for 10 min for complete lysis. The protein was purified over a Ni-NTA column (Amersham) and fractions containing pure protein were pooled, concentrated and run over a sizing column (Sephadex S200 26/60 global). […]", "values": [{"smiles": "Cc1ccc2c(NC(=O)N3c4nc(C(=O)NC[C@@H](N)C(F)(F)F)ccc4N4CC[C@H]3C4)n[nH]c2n1", "note": "(single isomer, unassigned) [Example 233]", "TRP Activity (EC1.5, concentration of test compound that results in 150% activation of SIRT1)": "B (EC1.5 1-25 μM)"}, {"smiles": "O=C(NCCO)c1ccc2c(n1)N(C(=O)Nc1ccccn1)[C@H]1CCN2C1", "note": "[Example 13, (4S)—N-7-(2-hydroxyethyl)-N-5-(pyridin-2-yl)-3,4-dihydro-1,4-methanopyrido [2,3-b] [1, 4] diazepine-5, 7(2H)-dicarboxamide]", "TRP Activity (EC1.5, concentration of test compound that results in 150% activation of SIRT1)": "B (EC1.5 1-25 μM)"}, {"smiles": "C[C@@H](NC(=O)c1ccc2c(n1)N(C(=O)Nc1cc(OC[C@H](O)CO)ccn1)[C@H]1CCN2C1)C(F)(F)F", "note": "[Example 74, (4S)—N5-(4-((R)-2,3-dihydroxypropoxy)pyridin-2-yl)-N7-((R)-1,1,1-trifluoropropan-2-yl)-3,4-dihydro-1,4-methanopyrido[2,3-b][1,4]diazepine-5,7(2H)-dicarboxamide]", "TRP Activity (EC1.5, concentration of test compound that results in 150% activation of SIRT1)": "A (EC1.5<1 μM)"}]}]}
